The record followed here is paper PMC6126813.

Results are given in words; binding and its absence hold for the method and conditions named. Sequences can lack the tags named with a protein.

Assay [1] concerns the target Pseudomonas aeruginosa recombinant A-type flagellin (rFlaA) from strain PAK (Pseudomonas aeruginosa PAK) (UniProt P21184). As to the kind of experiment: SEC; HPLC-SEC of the purified recombinant flagellin (column and buffer are told for the polysaccharides: Biosep SEC4000, 1 mL/min, PBS / 0.02% sodium azide pH 7.4); both purified.
For assay [2], the target named is T1, Pseudomonas aeruginosa recombinant B-type flagellin (rFlaB) from strain PAO1 (Pseudomonas aeruginosa PAO1), P72151.
T1 chain: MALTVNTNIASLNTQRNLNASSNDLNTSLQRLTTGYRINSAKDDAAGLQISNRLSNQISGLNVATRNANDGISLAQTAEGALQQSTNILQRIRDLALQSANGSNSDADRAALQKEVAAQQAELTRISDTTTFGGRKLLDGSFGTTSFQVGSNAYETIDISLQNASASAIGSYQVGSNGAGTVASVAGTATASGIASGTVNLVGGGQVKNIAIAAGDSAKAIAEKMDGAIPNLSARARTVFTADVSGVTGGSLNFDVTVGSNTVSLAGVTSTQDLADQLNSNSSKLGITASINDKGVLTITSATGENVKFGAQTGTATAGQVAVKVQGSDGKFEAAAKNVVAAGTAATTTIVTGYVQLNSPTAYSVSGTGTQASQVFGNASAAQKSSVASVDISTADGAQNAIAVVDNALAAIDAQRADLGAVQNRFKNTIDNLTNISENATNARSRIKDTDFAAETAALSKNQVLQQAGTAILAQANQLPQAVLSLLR
The description is as above. The conditions noted are these: remark: other sources report otherwise.

B1: Pseudomonas aeruginosa recombinant A-type flagellin (rFlaA) from strain PAK (protein, UniProt P21184 1-394)
chain: MALTVNTNIASLNTQRNLNNSSASLNTSLQRLSTGSRINSAKDDAAGLQIANRLTSQVNGLNVATKNANDGISLAQTAEGALQQSTNILQRMRDLSLQSANGSNSDSERTALNGEVKQLQKELDRISNTTTFGGRKLLDGSFGVASFQVGSAANEIISVGIDEMSAESLNGTYFKADGGGAVTAATASGTVDIAIGITGGSAVNVKVDMKGNETAEQAAAKIAAAVNDANVGIGAFSDGDTISYVSKAGKDGSGAITSAVSGVVIADTGSTGVGTAAGVTPSATAFAKTNDTVAKIDISTAKGAQSAVLVIDEAIKQIDAQRADLGAVQNRFDNTINNLKNIGENVSAARGRIEDTDFAAETANLTKNQVLQQAGTAILAQANQLPQSVLSLLR
B1: the binding result in assay [1] is listed as “no binding”.

B2: Pseudomonas aeruginosa recombinant B-type flagellin (rFlaB) from strain PAO1, P72151 1-488 (protein)
chain: MALTVNTNIASLNTQRNLNASSNDLNTSLQRLTTGYRINSAKDDAAGLQISNRLSNQISGLNVATRNANDGISLAQTAEGALQQSTNILQRIRDLALQSANGSNSDADRAALQKEVAAQQAELTRISDTTTFGGRKLLDGSFGTTSFQVGSNAYETIDISLQNASASAIGSYQVGSNGAGTVASVAGTATASGIASGTVNLVGGGQVKNIAIAAGDSAKAIAEKMDGAIPNLSARARTVFTADVSGVTGGSLNFDVTVGSNTVSLAGVTSTQDLADQLNSNSSKLGITASINDKGVLTITSATGENVKFGAQTGTATAGQVAVKVQGSDGKFEAAAKNVVAAGTAATTTIVTGYVQLNSPTAYSVSGTGTQASQVFGNASAAQKSSVASVDISTADGAQNAIAVVDNALAAIDAQRADLGAVQNRFKNTIDNLTNISENATNARSRIKDTDFAAETAALSKNQVLQQAGTAILAQANQLPQAVLSLLR
With B2, the binding entry in assay [2] was “no binding”.
